In publication PMC5355280:
No constants are given. Whether binding was seen depends on the method and setting. For part of these data: In cells and extracts the contact can be indirect. Some entries that bind do so weakly or less than the wild type. Values belong to the molecule of their own block, whether it stands above or below them.

The chains behind the UniProt entries cited, without tags or fusion partners. Residues count along the entry.
UniProt P22004, residues 375-513: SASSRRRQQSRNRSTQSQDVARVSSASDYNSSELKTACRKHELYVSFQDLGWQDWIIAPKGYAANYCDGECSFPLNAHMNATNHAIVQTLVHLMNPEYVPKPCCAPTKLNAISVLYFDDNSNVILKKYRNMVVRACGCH
UniProt P08476, residues 311-426: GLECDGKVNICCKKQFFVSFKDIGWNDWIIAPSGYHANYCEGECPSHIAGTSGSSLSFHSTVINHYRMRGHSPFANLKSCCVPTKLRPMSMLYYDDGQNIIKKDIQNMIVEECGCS

Columns and labels:
[1] = molecular target: T1, Chordin-like 2 (CHRDL2), secreted, in HCT116 cell culture medium (human (endogenous in HCT116)) (UniProt Q6WN34); test: co-IP; HCT116 culture media concentrated 10-fold, pre-cleared with normal IgG 3 h at 4°C; incubated with anti-CHRDL2, anti-BMP2, anti-BMP4, anti-BMP6 or normal IgG overnight at 4°C, protein A+G agarose beads 2 h at 4°C, five washes; western blot
T1 sequence: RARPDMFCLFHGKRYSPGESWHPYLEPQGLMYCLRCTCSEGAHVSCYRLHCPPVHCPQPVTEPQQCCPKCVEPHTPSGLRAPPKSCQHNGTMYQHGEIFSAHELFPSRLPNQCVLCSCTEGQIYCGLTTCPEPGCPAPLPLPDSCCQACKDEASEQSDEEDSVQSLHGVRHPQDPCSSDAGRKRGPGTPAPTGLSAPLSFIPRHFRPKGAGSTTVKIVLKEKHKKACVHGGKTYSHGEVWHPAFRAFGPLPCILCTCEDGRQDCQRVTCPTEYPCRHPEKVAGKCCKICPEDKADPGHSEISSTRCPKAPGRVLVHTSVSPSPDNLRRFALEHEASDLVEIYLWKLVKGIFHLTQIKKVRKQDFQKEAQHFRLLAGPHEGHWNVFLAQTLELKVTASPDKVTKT

[2] = molecular target: T2, Purified recombinant protein of Homo sapiens CHRDL2 (TP320245) (human) (UniProt Q6WN34); test: co-IP; CHRDL2 and mature recombinant human Activin A (Supplementary Figure S2C); details not shown; both purified
T2 sequence: T1 sequence

[3] = molecular target: T1, Chordin-like 2 (CHRDL2), secreted, in HCT116 cell culture medium (human (endogenous in HCT116)); test: co-IP; cell culture media, CHRDL2 and secreted Activin A (Supplementary Figure S2A, S2B); details not shown
[4] = molecular target: T2, Purified recombinant protein of Homo sapiens CHRDL2 (TP320245) (human); test: co-IP; mixture of recombinant CHRDL2 and recombinant BMP2, IP with anti-CHRDL2; done similarly to the co-IP of culture media; both purified

binding [1]: binds
Molecule: BMP6, secreted mature form, in HCT116 cell culture medium (from UniProt P22004 375-513) (ligand)

binding [2]: binds
Molecule: mature recombinant human Activin A (from UniProt P08476 311-426) (ligand)

binding [3]: binds
Molecule: Activin A, secreted mature form, in cell culture medium (from UniProt P08476 311-426) (ligand)

binding [1]: binds
B1: BMP4, secreted mature form, in HCT116 cell culture medium (ligand, UniProt P12644 293-408)
chain: SPKHHSQRARKKNKNCRRHSLYVDFSDVGWNDWIVAPPGYQAFYCHGDCPFPLADHLNSTNHAIVQTLVNSVNSSIPKACCVPTELSAISMLYLDEYDKVVLKNYQEMVVEGCGCR

binding [1]: binds
B2: BMP2, secreted mature form, in HCT116 cell culture medium (ligand, UniProt P12643 283-396)
chain: QAKHKQRKRLKSSCKRHPLYVDFSDVGWNDWIVAPPGYHAFYCHGECPFPLADHLNSTNHAIVQTLVNSVNSKIPKACCVPTELSAISMLYLDENEKVVLKNYQDMVVEGCGCR

binding [4]: binds
B3: Purified recombinant protein of Homo sapiens BMP2 (TP750012) (ligand, UniProt P12643 283-396)
chain: B2 chain
